The other results are listed elsewhere or left out.

By UniProt entry, the sequences of proteins in these tests, tags left out.
UniProt Q0JBA9, entry or part of it: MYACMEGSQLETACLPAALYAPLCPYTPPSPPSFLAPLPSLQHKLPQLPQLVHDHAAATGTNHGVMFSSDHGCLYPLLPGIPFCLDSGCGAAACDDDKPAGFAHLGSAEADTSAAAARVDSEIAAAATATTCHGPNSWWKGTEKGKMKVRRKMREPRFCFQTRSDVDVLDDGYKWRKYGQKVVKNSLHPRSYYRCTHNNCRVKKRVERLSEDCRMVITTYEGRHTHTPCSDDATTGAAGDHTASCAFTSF

For 42 sequences, binding signal results are on record in PMC7819943, “Rice protein-binding microarrays: a tool to detect cis-acting elements near promoter regions in rice”.

The test concerns the target OsWRKY34 (Oryza sativa, UniProt Q0JBA9 1-250). The test is described as follows: protein-binding microarray (RPBM); PBS, 2% BSA, 51.3 ng/ul salmon testes DNA, 50 uM zinc acetate, 200 nM TF, 25 C, 1 h; high values mean tight binding. The conditions noted are these: protein: recombinant; tags: N-terminal polyhistidine and DsRed monomer fusion (pET32a); label: CyDye5-dUTP incorporated in the synthesized complementary strand; 3' TTTTT single-stranded linker to array surface; dsDNA, one strand shown. The procedure, abridged: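 Using Ni–NTA, transcription factors fused N-terminally to polyhistidine and DsRed were purified after expression in E. coli BL21-CodonPlus. These were incubated at 200 nM with a blocked, double-stranded custom Agilent array for 1 h at 25 °C in a buffer containing 50 µM zinc acetate, and the array was washed. The binding signal is per-feature fluorescence intensity (arbitrary units) on an Axon 4000B scanner.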
With “ACTTTTTTCATGCGACATTTTTCTTCATCACTCTGAAGACCGGAGTCACCTAGTGCAG”, the binding signal is 12100 fluorescence intensity (a.u.). To “GCCCCGCTGCCTGATGCCATCGCTGCTTGGACTGCCCCATCGGAGTCACCTAGTGCAG” belongs 10800 fluorescence intensity (a.u.); to “ACGAGTCTCCGACCACTTCCCACACCGGCGCCTCCACGCCCGGAGTCACCTAGTGCAG”, 8320 fluorescence intensity (a.u.); to “CGGTGGGCTGGAGCTGATACGGGTTCTGGGGCAGGGAGCTCGGAGTCACCTAGTGCAG”, 9910 fluorescence intensity (a.u.). Next, “AACAGGTGGTGTAGTGACTAGTGAGGTGAGGGAGGAGGGGCGGAGTCACCTAGTGCAG”: 12600 fluorescence intensity (a.u.); “ACACTTCTATCGGCTTCTTTATCTGTACACCATCAGCCCACGGAGTCACCTAGTGCAG”: 10300 fluorescence intensity (a.u.). As to “ACCTCCATCGTTTCCGCACGCACGTTTTTCAAACCGTTAACGGAGTCACCTAGTGCAG”, the binding signal was 9080 fluorescence intensity (a.u.). For “CAGGAGGGGTGGGTTGTTGTTCGGTGGTGTGGACCCGTGCCGGAGTCACCTAGTGCAG”, the binding signal is 17700 fluorescence intensity (a.u.). As to “TTTTTAGCCTTTACTTTTAATTGCTACGAATACTTATATACGGAGTCACCTAGTGCAG”, the binding signal is 9160 fluorescence intensity (a.u.). For “TAAATTACTAAATTGTTTGACTTTTTTCTTAGTCAAACTTCGGAGTCACCTAGTGCAG”, the binding signal is 13600 fluorescence intensity (a.u.). “TGCCTAACAATTCTTTTTATTCGCGACGTCAATATACTACCGGAGTCACCTAGTGCAG”: the binding signal is 9730 fluorescence intensity (a.u.). “CATCCCCAAACTCCGCCGCCGCCGCCGTCACCGCCGCTCGCGGAGTCACCTAGTGCAG”: the binding signal was 8180 fluorescence intensity (a.u.). On to “ATCACCTTTTGCGGGCTTAGTTCTTTTTTAGACTAGCCATCGGAGTCACCTAGTGCAG”, for which the binding signal was 9940 fluorescence intensity (a.u.). Next, “CAAGCACCACATGACTCACACACACCTTTCTCTTCTTCCACGGAGTCACCTAGTGCAG”: 15700 fluorescence intensity (a.u.). For “AATGAAAAATGGGGATGGGATTGGGATTGAGAAATGAATGCGGAGTCACCTAGTGCAG”, the binding signal was 9280 fluorescence intensity (a.u.). With “AATGGCAACTTCACAATTAAATTCTTGCATCTTTATGGGGCGGAGTCACCTAGTGCAG”, the binding signal was 8910 fluorescence intensity (a.u.). On to “TGTGGTTGGTATCTTTACTATTCTTTATTTATTTATTTATCGGAGTCACCTAGTGCAG”, for which the binding signal is 8660 fluorescence intensity (a.u.). To “TGTGTCTGTCCTCCATCTTCTCTAAATAGTATTTAGCACACGGAGTCACCTAGTGCAG” belongs 9880 fluorescence intensity (a.u.); to “CACGGCGCGACACTTTTGCCCTCACCTCCTACGCCTACACCGGAGTCACCTAGTGCAG”, 8020 fluorescence intensity (a.u.); to “CGCGCTTCCCCGTTGACGCCGTCACCTCCCGTCTCCTTAACGGAGTCACCTAGTGCAG”, 8410 fluorescence intensity (a.u.). Turning to “CCTCCGTCCCACAATATAAGAGATTTTAAGTTTTTTCTTACGGAGTCACCTAGTGCAG”, the binding signal was 8900 fluorescence intensity (a.u.).

Turning to “GGGGAGCTATTTAGTACTAGTTTTCAGCTTAATTACATTTCGGAGTCACCTAGTGCAG”, the binding signal is 10900 fluorescence intensity (a.u.). To “TGTTTGCGTTTATCCCTTCTAGTGGGTTCCTTCGTAGGCACGGAGTCACCTAGTGCAG” belongs 8620 fluorescence intensity (a.u.); to “ATTGGATTATTTGAGGTCGGGGAGGGGTACTTCAATGAATCGGAGTCACCTAGTGCAG”, 14100 fluorescence intensity (a.u.); to “GCTACAGTAAGGTCAATATACTCTCCGTACTTTTCTTCTGCGGAGTCACCTAGTGCAG”, 8700 fluorescence intensity (a.u.). As to “GCCCACCATCTCATCTCTCGCACGCACGCACGCACCCGCCCGGAGTCACCTAGTGCAG”, the binding signal is 9070 fluorescence intensity (a.u.). Consider “TGTCATTGGTGTATGCTTGACTATAGTCATCAGAGTTCAACGGAGTCACCTAGTGCAG”, for which the binding signal is 8330 fluorescence intensity (a.u.). On to “TTTGACATGTAGCTTTATGCAAGTTGGGTTTCGGATCTTGCGGAGTCACCTAGTGCAG”, for which the binding signal was 8470 fluorescence intensity (a.u.). Turning to “AGCGGTTGCTGGTGGTATGAGGAATTTGTTGTCGACACAACGGAGTCACCTAGTGCAG”, the binding signal was 8380 fluorescence intensity (a.u.). For “ACATCCTTGTCGCGGCCATTATTCTCGTTGGAAGCTATCCCGGAGTCACCTAGTGCAG”, the binding signal is 8200 fluorescence intensity (a.u.).

As to “CATCGCTATCACGCTCTGCACTTATCTCCAGGCCCAACTCCGGAGTCACCTAGTGCAG”, the binding signal was 8970 fluorescence intensity (a.u.). Next, “GGAAGATCTATCTCTCGCTCGCTAGCTTGTCTGTCTTTTGCGGAGTCACCTAGTGCAG”: 11300 fluorescence intensity (a.u.); “ACCATTTACCAAACCTACCACAACTGGCACTACCAGATCGCGGAGTCACCTAGTGCAG”: 9610 fluorescence intensity (a.u.). As for “GGGTGCGTGGTACAGTTGACATTTGATACTTCTCTCGCCTCGGAGTCACCTAGTGCAG”, the binding signal was 9550 fluorescence intensity (a.u.). On to “TCAGTAACATCACCACACCGCTCTCCAAGTGTCAAAAAGACGGAGTCACCTAGTGCAG”, for which the binding signal was 9630 fluorescence intensity (a.u.). With “GTGGCTTGGCGTGGTAGTGTGGGTATGAGTGGATTCACCTCGGAGTCACCTAGTGCAG”, the binding signal was 8380 fluorescence intensity (a.u.). As to “AGCCTGGAAGCCCATTCAGCGGCGGGGTTGGGGCGGCAGGCGGAGTCACCTAGTGCAG”, the binding signal was 10200 fluorescence intensity (a.u.). Next, “CATACCCTGCATTCCTTAAATATCATTAGTGCATTTCATGCGGAGTCACCTAGTGCAG”: 9360 fluorescence intensity (a.u.). On to “GCCTCGCGTCGATCTCCTTGGCGCCACCACCGACCCCGCGCGGAGTCACCTAGTGCAG”, for which the binding signal was 9750 fluorescence intensity (a.u.).

On to “CATATACACACACTCCTCGACTCCTTGGCCCTTTATATACCGGAGTCACCTAGTGCAG”, for which the binding signal was 10400 fluorescence intensity (a.u.). With “TTTCTTTTCTTTTTTCTTTTTTTTTTTGCAATCTCCCTCGCGGAGTCACCTAGTGCAG”, the binding signal is 9680 fluorescence intensity (a.u.). With “AAAAGCCCACCACCACCCAACCCGCCCAACGCCACGTCACCGGAGTCACCTAGTGCAG”, the binding signal was 9230 fluorescence intensity (a.u.).
